Earlier results in patent publication US20020143065A1, “Developing a delivery system for multi-pharmaceutical active materials at various release rates” (priority 2000, published 2002).

Tested on: noradrenaline reassimilation

Q: With COc1cccc(C2(O)CCCCC2CN(C)C)c1 (single isomer, unassigned; (-)) [(−) enantiomer, (−) tramadol] as the compound, how does the “inhibition of noradrenaline reassimilation” value read?
A: significant inhibition
